Reference: PubChem BioAssay AID1259308 (NCATS, 2017)

Aim: 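Genes whose loss raises luciferase production in HEK293 cells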 (primary screen)
System: human HEK293 embryonic kidney cells stably expressing firefly luciferase (HEK-CMV-Luc2-Hygro)
Reagent: single siRNA against human genes, 0.8 pmol siRNA per well
Timing: 72 h
Measured: 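Reporter luminescence and viable-cell signal on separate replicate plates, given as percent of non-targeting control and median/MAD z-scores, plus per-cell luciferase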
Direction: total luciferase, z-score: higher = more reporter protein produced
Call rule: 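An siRNA counts as active if its total luciferase robust z-score exceeds 3; genes with two or more such siRNAs out of three were retested with fresh siRNAs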
Calls: active = raised luciferase; inactive = no rise
Here is one part, drawn at random, of about 59,000 reagents. About 1,510 of them (2.6%) count as active. 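Calls use total luciferase alone and ignore viability, so some active siRNAs may act by altering cell number.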 The numbers tell different reagents against one gene apart. Further read-outs or replicates are left out here.

RNF26 #1 gave total luciferase, z-score -0.74; inactive.
RNF26 #2 gave total luciferase, z-score -0.159; inactive.
After knock-down of RNF26 #3, the record shows total luciferase, z-score -1.85; inactive.
With knock-down of PIGX #1, the screen gave total luciferase, z-score -0.465; inactive.
For PIGX #2 the deposit lists total luciferase, z-score 0.208; inactive.
Against PIGX #3, the values are total luciferase, z-score -1.41; inactive.
Against RABL6 #1 the deposit lists total luciferase, z-score -1.8; inactive.
Silencing of RABL6 #2 resulted in: total luciferase, z-score 1.07; inactive.
RABL6 #3 gave total luciferase, z-score -0.301; inactive.
LYZL6 #1 gave total luciferase, z-score -0.391; inactive.
LYZL6 #2 gave total luciferase, z-score -0.441; inactive.
With knock-down of LYZL6 #3 the results were total luciferase, z-score -0.99; inactive.
With knock-down of ERV3-1 #1, the screen gave total luciferase, z-score 1.41; inactive.
ERV3-1 #2 scored total luciferase, z-score 0.0747; inactive.
Knock-down of ERV3-1 #3 resulted in: total luciferase, z-score -2.34; inactive.
After knock-down of MESP1 #1, the record shows total luciferase, z-score -0.922; inactive.
MESP1 #2 scored total luciferase, z-score -0.415; inactive.
Against MESP1 #3 the deposit lists total luciferase, z-score -0.942; inactive.
NUDT15 #1 gave total luciferase, z-score -1.81; inactive.
Against NUDT15 #2, the values are total luciferase, z-score 0.488; inactive.
Against NUDT15 #3 the deposit lists total luciferase, z-score -1.44; inactive.
Knock-down of ZDHHC2 #1 resulted in: total luciferase, z-score 0.2; inactive.
Depletion of ZDHHC2 #2 resulted in: total luciferase, z-score -0.865; inactive.
ZDHHC2 #3 showed total luciferase, z-score -0.693; inactive.
Knock-down of DDX51 #1 resulted in: total luciferase, z-score -0.45; inactive.
With knock-down of DDX51 #2, the screen gave total luciferase, z-score 1.65; inactive.
Depletion of DDX51 #3 came out at: total luciferase, z-score -1.17; inactive.
Knock-down of EIF1AD #1 resulted in: total luciferase, z-score 4.31; active.
Knock-down of EIF1AD #2 resulted in: total luciferase, z-score 0.243; inactive.
EIF1AD #3 gave total luciferase, z-score -1.24; inactive.
Against MEPE #1 the deposit lists total luciferase, z-score -0.316; inactive.
MEPE #2 scored total luciferase, z-score -0.916; inactive.
For MEPE #3, the entry reads total luciferase, z-score 1.39; inactive.

Copied from the list.
For “total luciferase, z-score”, ERV3-1 #1 has 1.41
RABL6 #3, outcome → inactive
Result of MESP1 #1 under “outcome”: inactive
